The assay has as its target Neu5Gc(b2-6)Gal(b1-4)GlcNAc. Nature of the assay: glycan array binding signal (z-score within array); higher = stronger binding. Conditions: glycan notation: IUPAC condensed, linker removed. Summed up: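 Glycan array data were curated from 3228 arrays in the Consortium for Functional Glycomics database and kept only where the protein sequence was available. Glycan names were converted to IUPAC-condensed notation, and columns mapping to the same glycan were averaged. The binding signal is a within-array Z-score, averaged across arrays of the same protein sequence at different concentrations or buffers and across linkers. Negative Z-scores can be read as non-binding.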

The list shows a part of the results.

B1: SfaEH (Escherichia coli), Q1RDG5 (protein)
chain: LLCRNNQTGQVFNSGDTSFRVNVSPVVQYDKSISVLDLSQLVSCQNEDSTGQNYDYLKILKGSGFSPALDTKTYGRLDFTSRPTGYARQLPLQFDLQVTEAFYQYGVWKPFPAKLYLYPAPGVFGKVINNGDLLATLYVNKFSTKGQEAGERNFTWRFYATNDVYIQTGTCRVSSNNVKVDLPSYPGGPVTVPLTVRCDQTQSVSYTLSGPVTGSGNTVFANTAASGSGGVGIQLSDNVGPVPAGQPRSLGQVGSSPVSLGLKASYALTGQASPTPGAVQSVINVTFSYN
Turning to B1, the “glycan array binding signal (z-score)” value was -0.164.

The values above are taken from the supplement of paper PMC8728848.
